Results on six molecules are retold here after PMC6650482, “Tyrosine 51 residue of the syndecan-2 extracellular domain is involved in the interaction with and activation of pro-matrix metalloproteinase-7” (Scientific Reports, 2019).

Chains of the proteins cited; added tags and fusions are not shown. Lines headed by an entry give the natural chain unless they say otherwise; changes in a name come on top. A line that says so, or that is headed by a name, gives the form on record, which may keep a tag or linker. Residues count along the entry.
GST-tagged N-terminal extracellular domain of syndecan-2 (S2E-N, amino acid residues 19-78) (P34741, residues 19-78): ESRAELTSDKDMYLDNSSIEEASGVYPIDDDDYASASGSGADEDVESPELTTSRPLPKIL
GST-tagged syndecan-2 extracellular domain with Tyr51 changed to Ala (Y51A) (P34741, form named): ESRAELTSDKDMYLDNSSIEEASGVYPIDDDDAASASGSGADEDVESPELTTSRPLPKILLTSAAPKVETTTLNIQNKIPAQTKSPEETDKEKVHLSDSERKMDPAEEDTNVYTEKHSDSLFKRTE
UniProt P09237: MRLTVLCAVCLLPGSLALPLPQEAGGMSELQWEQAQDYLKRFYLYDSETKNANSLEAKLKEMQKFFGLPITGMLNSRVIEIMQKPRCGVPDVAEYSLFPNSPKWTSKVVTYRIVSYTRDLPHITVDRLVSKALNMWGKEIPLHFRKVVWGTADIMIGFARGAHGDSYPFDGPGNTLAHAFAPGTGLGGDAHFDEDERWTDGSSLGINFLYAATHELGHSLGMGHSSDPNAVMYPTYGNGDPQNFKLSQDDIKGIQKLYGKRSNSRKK

These are yes or no findings as the source states them, for the method shown. For some of these results: A result given as binding can be weak or reduced; the word gives no strength.

Assay [1] deals with T1, synthetic human syndecan-2 peptide (S2-P), extracellular domain residues 41-60 (human).
T1 sequence (peptide): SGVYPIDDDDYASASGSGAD
Nature of the assay: ELISA; plates coated with 600 ng S2-P; His-tagged MMP-7 pro-domains 500 ng/well, 2 h at 20 °C; anti-His tag antibody, IgG-HRP, TMB, A450; both purified.

Assay [2] deals with GST-tagged syndecan-2 extracellular domain with Tyr51 changed to Ala (Y51A) (human) (UniProt P34741). Put plainly: pull-down; purified GST-syndecan-2 proteins incubated with purified His-tagged MMP-7 pro-domain proteins (2 h at 4 °C where stated); materials bound to glutathione-agarose beads immunoblotted with anti-His tag antibody; both purified. (Immunoblotting shows a protein as a band on a membrane.)

Assay [3] deals with GST-tagged N-terminal extracellular domain of syndecan-2 (S2E-N, amino acid residues 19-78) (human) (UniProt P34741). Described as above.
Assay [4] concerns the target His-tagged MMP-7 pro-domain mutant lacking both linkers (ΔNC, residues 9-73) (human). Put plainly: NMR titration; 1H-15N HSQC of 15N-labelled ΔNC with S2-P up to molar ratio 1:15; 20 mM Na2HPO4 pH 6.0, 5 mM β-mercaptoethanol, 100 mM dodecylphosphocholine, 283 K; both purified.

Consider “His-tagged MMP-7 pro-domain mutant lacking both linkers (ΔNC, residues 9-73) (human) (domain or fragment)”, for which the binding entry in assay [1] is on record as “binds”.

For the molecule “His-tagged α2 helix-loop-α3 helix protein fragment (α2–3) of the MMP-7 pro-domain (from UniProt P09237) (domain or fragment)”, the values for the binding entry in assay [2] and in assay [3] were “no binding” and “binds”, respectively.

As to “His-tagged pro-domain of MMP-7 (His-PD) (from UniProt P09237) (domain or fragment)”, the binding result in assay [3] was “binds”.

In the case of “His-tagged MMP-7 pro-domain mutant lacking the N-terminal linker (ΔN, residues 9-79) (human) (domain or fragment)”, the binding entry in assay [1] is on record as “binds”.

As for “His-tagged MMP-7 pro-domain mutant lacking the C-terminal linker (ΔC, residues 1-73) (human) (domain or fragment)”, the binding result in assay [1] is on record as “binds”.

B1: synthetic human syndecan-2 peptide (S2-P), extracellular domain residues 41-60 (peptide)
peptide: SGVYPIDDDDYASASGSGAD
notes: human syndecan-2 extracellular domain residues 41-60; also called S2-P peptide; source: synthetic peptide (Fmoc solid-phase, Anygen Inc.)
On to B1, for which, in assay [4], the binding result was “binds”.
